First drug in all entries: docetaxel, 0.0005 µM, CC(=O)O[C@@]12CO[C@@H]1C[C@H](O)[C@@]1(C)C(=O)[C@H](O)C3=C(C)[C@@H](OC(=O)[C@H](O)[C@@H](NC(=O)OC(C)(C)C)c4ccccc4)C[C@@](O)([C@@H](OC(=O)c4ccccc4)[C@H]21)C3(C)C

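Human melanoma cells were exposed to a pair of drugs for 72 h in 1,536-well plates and read by automated microscopy after fixing and staining. The read-out is the fraction of cleaved-PARP-positive nuclei, in % of that fraction in the DMSO control; 200 means twice the control level of this apoptosis marker. Concentrations were fixed for each drug; these are the higher of two levels. The file gives one value for each pair and line, without errors, so small differences may be noise. Basal and induced levels differ widely between cell lines.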
This is part of the screen, not chosen by result.
An entry leaves out what has no value listed here.

CC[C@]1(O)C[C@H]2CN(CCc3c([nH]c4ccccc34)[C@@](C(=O)OC)(c3cc4c(cc3OC)N(C=O)[C@H]3[C@@](O)(C(=O)OC)[C@H](OC(C)=O)[C@]5(CC)C=CCN6CC[C@]43[C@@H]65)C2)C1 at 0.0005 µM gave SK-MEL-2: 1320; COLO 800: 123; MEL-HO: 204. O=C(Oc1ccc([N+](=O)[O-])cc1)N1CCC(C(O)(c2ccc3c(c2)OCO3)c2ccc3c(c2)OCO3)CC1 at 5 µM gave SK-MEL-2: 692; LB2518-MEL: 202; COLO 800: 828; MEL-HO: 124. O=C(O)[C@@H]1[O][Sb](=[O])([O][Sb]2(=[O])[O][C@H]([C@H](O)CO)[C@H](O)[C@H](C(=O)O)[O]2)[O][C@H]([C@H](O)CO)[C@@H]1O (some centres unmarked) at 10 µM gave SK-MEL-2: 1720; LB2518-MEL: 167; COLO 800: 338; MEL-HO: 387.

Nc1ccn([C@@H]2O[C@H](CO)[C@@H](O)C2(F)F)c(=O)n1 at 0.002 µM gave SK-MEL-2: 1860; LB2518-MEL: 127; COLO 800: 113; MEL-HO: 136. With CN(NC(=O)CC(=O)NN(C)C(=S)c1ccccc1)C(=S)c1ccccc1 at 0.03 µM the screen read SK-MEL-2: 592; LB2518-MEL: 743; COLO 800: 220; MEL-HO: 164. O=C(O)c1ccc2c(c1)nc(Nc1cccc(Cl)c1)c1ccncc12 at 2 µM gave SK-MEL-2: 1090; COLO 800: 225; MEL-HO: 79.8.

With CC(=O)c1c(C)c2cnc(Nc3ccc(N4CCNCC4)cn3)nc2n(C2CCCC2)c1=O at 0.2 µM the screen read SK-MEL-2: 619; LB2518-MEL: 107; COLO 800: 132; MEL-HO: 215. For CC(C)C[C@H](NC(=O)[C@H](Cc1ccccc1)NC(=O)c1cnccn1)B(O)O at 0.005 µM the values were SK-MEL-2: 1020; COLO 800: 165; MEL-HO: 181. Results for CCCCCCCCc1ccc(CCC(N)(CO)CO)cc1 at 10 µM are SK-MEL-2: 11200; LB2518-MEL: 29800; COLO 800: 425; MEL-HO: 995.

COc1cc2c(Oc3ccc4[nH]c(C)cc4c3F)ncnc2cc1OCCCN1CCCC1 at 2 µM gave SK-MEL-2: 1140; LB2518-MEL: 732; COLO 800: 457; MEL-HO: 160. Results for Cc1cn(-c2cc(NC(=O)c3ccc(C)c(Nc4nccc(-c5cccnc5)n4)c3)cc(C(F)(F)F)c2)cn1 at 1 µM are SK-MEL-2: 1390; LB2518-MEL: 370; COLO 800: 284; MEL-HO: 195. Cc1cc(N2CCOCC2)cc2[nH]c(-c3c(NC[C@@H](O)c4cccc(Cl)c4)cc[nH]c3=O)nc12 at 1 µM gave SK-MEL-2: 890; LB2518-MEL: 1420; COLO 800: 319; MEL-HO: 136.

Results for COCC[n+]1c2c(n(Cc3cnccn3)c1C)C(=O)c1ccccc1C2=O at 0.002 µM are SK-MEL-2: 1040; LB2518-MEL: 297; COLO 800: 135; MEL-HO: 190. With CCN(CC)CCNC(=O)c1c(C)[nH]c(/C=C2\C(=O)Nc3ccc(F)cc32)c1C at 2 µM the screen read SK-MEL-2: 1920; LB2518-MEL: 402; COLO 800: 178; MEL-HO: 110. For C[C@]1(O)C[C@@H](c2nc(-c3ccc4ccc(-c5ccccc5)nc4c3)c3c(N)nccn32)C1 at 2 µM the values were SK-MEL-2: 2460; LB2518-MEL: 834; COLO 800: 330; MEL-HO: 83.3.

Results for Oc1nc(-c2ccc(C(F)(F)F)cc2)nc2c1CSCC2 at 10 µM are SK-MEL-2: 1800; LB2518-MEL: 481; COLO 800: 562; MEL-HO: 119. For NC(=O)Nc1cc(-c2cccc(F)c2)sc1C(=O)N[C@H]1CCCNC1 at 0.1 µM the values were SK-MEL-2: 2480; LB2518-MEL: 914; COLO 800: 388; MEL-HO: 189. With Cc1nc(Nc2ncc(C(=O)Nc3c(C)cccc3Cl)s2)cc(N2CCN(CCO)CC2)n1 at 0.02 µM the screen read SK-MEL-2: 2120; LB2518-MEL: 373; COLO 800: 602; MEL-HO: 120.

With O=C1NC(=O)/C(=C/c2ccc(-c3ccc(F)cc3O)o2)S1 at 5 µM the screen read SK-MEL-2: 1190; LB2518-MEL: 64.6; COLO 800: 588; MEL-HO: 355. Results for COc1cc(Nc2ncc(F)c(Nc3ccc4c(n3)NC(=O)C(C)(C)O4)n2)cc(OC)c1OC at 2 µM are SK-MEL-2: 402; LB2518-MEL: 664; COLO 800: 300; MEL-HO: 160. Results for Cc1cc(Nc2cc(N3CCN(C)CC3)nc(Sc3ccc(NC(=O)C4CC4)cc3)n2)n[nH]1 at 0.03 µM are SK-MEL-2: 1440; LB2518-MEL: 479; COLO 800: 219; MEL-HO: 180.

Nc1cccc2c1CN(C1CCC(=O)NC1=O)C2=O (centres unmarked) at 5 µM gave SK-MEL-2: 2090; LB2518-MEL: 197; COLO 800: 225; MEL-HO: 97.0. With NC1(c2ccc(-c3nc4ccn5c(=O)[nH]nc5c4cc3-c3ccccc3)cc2)CCC1 at 2 µM the screen read SK-MEL-2: 1630; LB2518-MEL: 249; COLO 800: 162; MEL-HO: 97.6. For COc1ccc(-c2ccc3c(N4CCOCC4)nc(N4C[C@@H](C)O[C@@H](C)C4)nc3n2)cc1CO at 0.1 µM the values were SK-MEL-2: 1630; LB2518-MEL: 411; COLO 800: 492; MEL-HO: 363.

For CCCCCCCCCCCCCCCCCCOP(=O)([O-])OC1CC[N+](C)(C)CC1 at 2 µM the values were SK-MEL-2: 874; LB2518-MEL: 436; COLO 800: 298; MEL-HO: 191. Results for O=C(/C=C/c1cccnc1)NCCCCC1CCN(C(=O)c2ccccc2)CC1 at 0.05 µM are SK-MEL-2: 3820; LB2518-MEL: 1070; COLO 800: 180; MEL-HO: 126. Results for COc1cc([C@@H]2c3cc4c(cc3[C@@H](O[C@@H]3O[C@@H]5CO[C@@H](C)O[C@H]5[C@H](O)[C@H]3O)[C@H]3COC(=O)[C@H]23)OCO4)cc(OC)c1O at 0.1 µM are SK-MEL-2: 799; LB2518-MEL: 284; COLO 800: 43.6; MEL-HO: 129.

Results for CN(C)S(=O)(=O)c1ccc2c(c1)/C(=C/c1cc3c([nH]1)CCCC3)C(=O)N2 at 2 µM are SK-MEL-2: 742; LB2518-MEL: 206; COLO 800: 546; MEL-HO: 144. With Cn1cnc2c(F)c(Nc3ccc(Br)cc3Cl)c(C(=O)NOCCO)cc21 at 0.075 µM the screen read SK-MEL-2: 1030; LB2518-MEL: 414; COLO 800: 730; MEL-HO: 222. With Cc1ccc(Nc2nccc(N(C)c3ccc4c(C)n(C)nc4c3)n2)cc1S(N)(=O)=O at 2 µM the screen read SK-MEL-2: 1270; LB2518-MEL: 429; COLO 800: 282; MEL-HO: 178.

The first 2 entries again:

{"partner": "CC[C@]1(O)C[C@H]2CN(CCc3c([nH]c4ccccc34)[C@@](C(=O)OC)(c3cc4c(cc3OC)N(C=O)[C@H]3[C@@](O)(C(=O)OC)[C@H](OC(C)=O)[C@]5(CC)C=CCN6CC[C@]43[C@@H]65)C2)C1 at 0.0005 µM", "SK-MEL-2": 1320, "COLO 800": 123, "MEL-HO": 204}
{"partner": "O=C(Oc1ccc([N+](=O)[O-])cc1)N1CCC(C(O)(c2ccc3c(c2)OCO3)c2ccc3c(c2)OCO3)CC1 at 5 µM", "SK-MEL-2": 692, "LB2518-MEL": 202, "COLO 800": 828, "MEL-HO": 124}

Data from the primary screen of doi:10.1371/journal.pone.0140310, rounded.